The whole screen tested about 220,000 compounds, of which about 910 (0.41%) were called active. The shares of active, inactive and inconclusive entries below differ from those in the screen.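 How the source made its calls: active means primary inhibition above the hit cutoff, then over 50% inhibition at one or more dose response concentrations (cut at about 23% in these data, passing the limit was not always enough); inconclusive means conflicting primary data, or primary hits not chosen for dose response; inactive means low primary inhibition, or under 50% at every dose.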
Target: Aminopeptidase N (Plasmodium falciparum (isolate 3D7)) (UniProt O96935)
Experiment: P. falciparum M1AAP inhibitors, biochemical, fluorogenic H-Leu-NHMec substrate, 1536-well (AID 1445);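 further: plate controls were DMSO full reaction for no effect and no enzyme background for full effect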
Conditions: recombinant M1AAP, H-Leu-NHMec fluorogenic kinetic assay; at 30 µM, hits give high values unless noted

Amino acid sequences for entries named in this document (tags omitted). A change or cut given only in a name is not applied to a line headed by its entry.
UniProt O96935: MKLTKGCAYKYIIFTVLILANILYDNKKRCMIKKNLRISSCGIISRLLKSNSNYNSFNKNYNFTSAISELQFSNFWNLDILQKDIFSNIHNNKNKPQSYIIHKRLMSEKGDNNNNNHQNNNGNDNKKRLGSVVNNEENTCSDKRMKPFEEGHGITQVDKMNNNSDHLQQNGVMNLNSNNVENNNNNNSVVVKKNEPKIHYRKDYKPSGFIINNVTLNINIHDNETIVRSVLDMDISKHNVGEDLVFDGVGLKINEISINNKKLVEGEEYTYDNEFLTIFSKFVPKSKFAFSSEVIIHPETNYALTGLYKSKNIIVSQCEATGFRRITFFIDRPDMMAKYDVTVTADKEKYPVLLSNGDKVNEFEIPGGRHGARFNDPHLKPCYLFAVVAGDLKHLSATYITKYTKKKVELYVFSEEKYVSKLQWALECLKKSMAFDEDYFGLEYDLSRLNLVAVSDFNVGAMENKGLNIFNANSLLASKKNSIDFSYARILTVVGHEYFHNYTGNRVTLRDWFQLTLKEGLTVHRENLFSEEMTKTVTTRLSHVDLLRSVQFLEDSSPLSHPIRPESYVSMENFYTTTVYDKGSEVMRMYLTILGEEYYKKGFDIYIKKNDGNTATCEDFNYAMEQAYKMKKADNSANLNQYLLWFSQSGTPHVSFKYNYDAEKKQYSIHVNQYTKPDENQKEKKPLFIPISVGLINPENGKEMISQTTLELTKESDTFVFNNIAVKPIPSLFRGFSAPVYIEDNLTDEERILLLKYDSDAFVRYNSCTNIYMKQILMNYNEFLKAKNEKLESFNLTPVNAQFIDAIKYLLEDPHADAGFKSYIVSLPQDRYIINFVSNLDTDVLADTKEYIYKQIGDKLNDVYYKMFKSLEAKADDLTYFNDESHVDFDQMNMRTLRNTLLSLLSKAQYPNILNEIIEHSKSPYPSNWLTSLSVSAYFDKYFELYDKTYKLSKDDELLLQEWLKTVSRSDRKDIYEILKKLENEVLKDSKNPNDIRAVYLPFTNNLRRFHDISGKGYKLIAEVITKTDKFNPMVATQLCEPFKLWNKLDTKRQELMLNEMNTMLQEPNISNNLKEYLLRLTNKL

Structure (SMILES) | inhibition
COC(=O)c1cccc(NC(=O)C2COc3ccccc3O2)c1C (configuration not stated) | inactive: 3.13%
Cc1[nH]ccc2c1[nH]c1cc(=O)ccc12 | inconclusive: 51.1%
CN1C(C(=O)NCCc2cccs2)CC2Cn3c(nc4cc(Cl)c(Cl)cc43)C21 (configuration not stated) | inconclusive: 27.5%
O=c1[nH]c2ccc(Cl)cc2c(-c2ccccc2)c1SC(=S)N1CCCCC1 | inconclusive: 27.3%
O=C(O)c1ccc(N/N=C/c2cc3c(cc2[N+](=O)[O-])OCO3)cc1 | inconclusive: 27.9%
CCN(CC)c1nc2c(c(=O)n(C)c(=O)n2C)n1CC(=O)c1ccccc1 | inconclusive: 28.3%
O=C(NCc1ccccc1)c1sc(=S)n2c1[nH]c(=O)c1ccccc12 | inactive: 18.5%
CCOC(=O)Cc1c(C)c2ccc(N(CC)CC)cc2oc1=O | inconclusive: 21.1%
Cc1ccc(-c2nc3ccccc3o2)cc1NC(=S)NC(=O)/C=C/c1ccco1 | inconclusive: 25%
N#C/C(=C\c1coc2ccc(O)cc2c1=O)C(=O)Nc1nc2ccccc2s1 | inconclusive: 39.2%
CCCCCc1c2c(cc(O)c1C(=O)O)OC(=O)c1c(cc(OC)cc1C(=O)CCCC)O2 | inconclusive: 25%
O=c1[nH]c2cc3c(cc2cc1CN(Cc1cccs1)Cc1nnnn1Cc1ccco1)OCCO3 | inconclusive: 24.8%
COc1ccc(C2C(C(=O)OCC(=O)Nc3ccc(C)cc3)CCC(=O)N2c2ccc(OC)cc2)cc1 (configuration not stated) | active: 23.9%
CCCCNC(=O)Oc1c(Br)cc2sc(=O)oc2c1Br | inconclusive: 28.1%
CN(C)c1ccc(/C=C/c2cc[n+](C)cc2)cc1 | inconclusive: 26.8%
CC(C)c1ccc(-c2nnc(N)s2)cc1 | inactive: -1.69%
FC(F)C(F)(F)C1=CC(c2cccs2)=NCCN1 | inactive: 6.95%
O=c1c(-c2ccc3c(c2)OCCO3)c(C(F)(F)F)oc2cc(O)cc(O)c12 | active: 24.6%
CCCS(=O)(=O)N1CCC(C(=O)c2cccc(C(F)(F)F)c2)CC1 | active: 23.4%

Structure (SMILES) | inhibition
CCN(c1ccccc1)S(=O)(=O)c1cccc(C(=O)OCc2nc3sc(C)c(C)c3c(=O)[nH]2)c1 | inconclusive: 27.4%
O=C(O)C(Cc1ccccc1)N1C(=O)/C(=C/C=C/c2ccco2)SC1=S (configuration not stated) | inconclusive: 27.3%
O=[N+]([O-])c1cccc(NC2=NCCC2)c1 | inactive: 3.59%
COc1ccc(OC)c(S(=O)(=O)N2CCC(C(=O)NC(C)c3ccccc3)CC2)c1 (configuration not stated) | inconclusive: 37.6%
O=c1cc(CSc2nc3ccccc3c(=O)[nH]2)c2ccc(O)cc2o1 | inconclusive: 27.4%
C=CCn1c(SCC(=O)NC23CC4CC(CC(C4)C2)C3)nc(O)cc1=O | active: 24.7%
COc1ccc(C(=O)OCC[N+]2(C)CCOCC2)cc1 | inconclusive: 23.7%
COc1ccc(Cn2nnc3c(=O)[nH]c(C(=O)NCCc4ccc(F)cc4)nc32)cc1OC | active: 24.5%
CC1CC(=O)Nc2ccccc2N1S(=O)(=O)c1ccc(Br)cc1 (configuration not stated) | inactive: -1.92%
CCOC(=O)C1(CC2CCCCO2)CCN(C(=O)Nc2ccccc2CC)CC1 (configuration not stated) | inactive: 1.45%
COc1ccc(Cc2nnc(SCC(=O)NC3CCCCC3)n2C)cc1 | active: 24.3%
CC(C)CC(c1nnnn1CC1CCCO1)N1CCN(c2cccc(Cl)c2)CC1 (configuration not stated) | active: 31.4%
CCOC(=O)C1=C(O)/C(=C/c2ccc(-c3ccccc3C(=O)O)o2)SC1=Nc1ccc(OC)cc1 | active: 26.2%
CN1c2ccccc2-c2nc3ccccc3n2C1c1cccs1 (configuration not stated) | inconclusive: 23.5%
COc1cc(/C=C/C(=O)O)ccc1OS(=O)(=O)c1ccc(C)cc1 | inactive: 0.48%
COCCN(CCOC)C(=O)c1cc2c(=O)n3ccccc3nc2s1 | inconclusive: 18%
CC(=O)Nc1ccc(Nc2nc(C)nc3c2oc2ccccc23)cc1 | inconclusive: 27.6%
COc1ccc(CN(Cc2cc3cccc(C)c3[nH]c2=O)C(=O)N(C)C)cc1 | inconclusive: 26.3%
O=C(NC1CCCC1)C(c1ccncc1)N(Cc1cccs1)C(=O)c1csnn1 (configuration not stated) | active: 24.6%

Structure (SMILES) | inhibition
COc1cccc(NC(=S)NNC(=O)c2ccccc2OC(F)F)c1 | inconclusive: 32%
O=C(CCC1CC(=O)Nc2ccccc21)NCc1ccc(F)cc1 (configuration not stated) | inactive: 5.98%
Cc1cccc(CN2CCN(CCCc3ccccc3)CC2)c1 | inactive: -1.11%
CC12CNCC(C)(CN(C3(O)C(=O)Nc4ccc(Br)cc43)C1)C2=O (configuration not stated) | inactive: -7.16%
Cc1ccc(-c2cn3cccnc3n2)cc1NC(=O)c1ccc(Br)o1 | active: 24.6%
CC(C)c1nnc(NC(=O)c2sc3ccccc3c2Cl)s1 | inconclusive: 27.4%
CCOC(=O)C(=O)C1=C(N2CCOCC2)/C(=C\c2cccc([N+](=O)[O-])c2)CC1 | inconclusive: 25.6%
COc1ccc2[nH]c3c(NCc4ccco4)ncnc3c2c1 | inconclusive: 25.7%
COc1cc(-c2nc3ccccn3c2/N=C/c2cc(OC)c(O)cc2Cl)ccc1O | inconclusive: 24.7%
N#Cc1c(-c2ccccc2)c(C#N)c2nc3ccccc3n2c1N | inactive: 3.17%
O=C(O)CC1S/C(=N/N=C/c2ccc(-c3ccc(Cl)cc3[N+](=O)[O-])o2)NC1=O (configuration not stated) | inactive: 20.8%
S=c1[nH]nc(-c2ccco2)n1/N=C/c1cccs1 | inconclusive: 24.6%
NC(=O)c1sc2nccc(Nc3ccccc3)c2c1N | inconclusive: 25.8%
CN(Cc1ccccc1)c1ccc(N2C(=O)CCC2=O)cc1[N+](=O)[O-] | inconclusive: 25.9%
Cc1ccc(SCC(=O)c2ccc[nH]2)cc1 | inactive: 2.44%
COCCCNC(=O)CSC1=Nc2ccccc2C2=NC(CC(=O)NCc3ccccc3)C(=O)N12 (configuration not stated) | inconclusive: 24.8%
COc1ccc(-c2ccc(N(C)C)cc2)cc1[C@H]1[C@H]2C=CC[C@@H](C)[C@@H]2C(=O)N1Cc1ccccc1 | inactive: 0.52%
COc1cccc(Cn2nnc(C(=O)Nc3cc(C)ccc3OC)c2N)c1 | inactive: 7.36%
CCOc1ccc(-n2c(=S)sc3c(=O)[nH]c(SCC(=O)C(C)(C)C)nc32)cc1 | inconclusive: 26.8%

Structures shown so far that contain a CF3 group (2):
Structure (SMILES) | inhibition
O=c1c(-c2ccc3c(c2)OCCO3)c(C(F)(F)F)oc2cc(O)cc(O)c12 | active: 24.6%
CCCS(=O)(=O)N1CCC(C(=O)c2cccc(C(F)(F)F)c2)CC1 | active: 23.4%

Source: PubChem BioAssay AID1445 (SRMLSC, 2008)
